The values that follow come from article PMC9962927.

By UniProt entry, the sequences of proteins in these tests, tags left out. Residues count along the entry.
UniProt P13128, residues 39-526: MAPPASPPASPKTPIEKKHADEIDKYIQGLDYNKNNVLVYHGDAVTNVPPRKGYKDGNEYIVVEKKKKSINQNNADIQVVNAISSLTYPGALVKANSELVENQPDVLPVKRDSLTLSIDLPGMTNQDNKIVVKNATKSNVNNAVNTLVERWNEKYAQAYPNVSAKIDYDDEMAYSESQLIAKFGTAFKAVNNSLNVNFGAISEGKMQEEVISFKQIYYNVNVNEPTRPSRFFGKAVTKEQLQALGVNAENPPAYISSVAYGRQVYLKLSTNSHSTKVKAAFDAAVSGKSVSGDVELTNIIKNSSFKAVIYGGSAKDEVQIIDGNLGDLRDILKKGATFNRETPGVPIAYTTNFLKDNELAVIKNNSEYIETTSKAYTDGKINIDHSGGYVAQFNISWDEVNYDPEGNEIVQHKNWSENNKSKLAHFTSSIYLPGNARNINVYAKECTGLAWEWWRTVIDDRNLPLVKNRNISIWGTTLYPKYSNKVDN

The assay deals with listeriolysin O (Listeria monocytogenes) (UniProt P13128). The assay can be described thus: in vitro oligomerisation, SDS-PAGE and Western blot; purified LLO pre-incubated with or without the indicated concentrations of CT extract at 37 °C for 20 min; oligomerisation induced in vitro as in ref. 46; high molecular weight complexes detected by Western blot; both purified.

These are yes or no findings as the source states them, for the method shown. Some binding calls cover weakened binding; strength is not graded here.

Turning to “listeriolysin O (from UniProt P13128 39-526)”, the binding entry is “binds”.
